Laboratory results reported in patent US20240091214A1, “LONAFARNIB FOR USE IN THE TREATMENT OF VIRAL INFECTIONS” (TWINCORE ZENTRUM FÜR EXPERIMENTELLE UND KLINISCHE …, priority 2021, published 2024).
At least one structure is not confirmed: it was looked up by name or label, or the drawing left a doubt.

How the values were obtained:
HRSV-B virus = test: HRSV-B infection assay, number of infected cells; type: cell-based; settings: % compared to DMSO control (FIG. 9)
Source text: However, […].

[1] = tested on: clinical HRSV isolate HRSV H01 ON1; test: Plaque reduction test with clinical HRSV isolate; type: cell-based, human respiratory syncytial virus (HRSV); settings: clinical HRSV H01 ON1 isolate (FIG. 4)
Experimental: The respective concentrations of lonafarnib, tipifarnib and DMSO (control; final concentration 1%) administered to the cells are indicated on the respective well.
To confirm the antiviral effect of lonafarnib, an infection assay was performed with the clinical HRSV isolate HRSV H01 ON1. The infection efficiency was assessed in the plaque reduction test, i.e. independently of an indirect reporter gene measurement. […] (FIG. 4)

Cn1cncc1[C@@](N)(c1ccc(Cl)cc1)c1ccc2c(c1)c(-c1cccc(Cl)c1)cc(=O)n2C [tipifarnib]
inhibition of HRSV-B infection (number of infected cells) (HRSV-B virus): not effective
plaque formation (plaque size and number) [1]: not tipifarnib reduces plaque formation
